Hit rate of the full screen: of about 390,000 compounds, about 4,000 (1%) were called active. The inconclusive results got no clear call from the source; some entries with a clear call stand among them for comparison. The call rests on the fitted dose curve; in most records, active means well fitted inhibition curve with a large enough effect; inconclusive means small, poorly fitted or top-dose-only effect, or another doubt; inactive means no such curve, though single readings can be large or run the other way. Potencies beside an inconclusive call are fits to weak or partial responses and may not hold up.
target: DNA polymerase iota (Homo sapiens) (UniProt Q9UNA4); experiment: qHTS for Inhibitors of Polymerase Iota; details: Pol iota fluorescent replication assay, 10 min; series mostly up to 115 µM; activity, negative = inhibition: at the top concentration
Method in brief: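 Fluorescent replication assay read twice, at 0 min and 10 min after adding 50 nM (final) substrate. Enzyme (10 nM) and compounds were first incubated 15 min at room temperature; enzyme-free buffer wells were negative controls.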
Potency means the concentration at half of the fitted maximal effect.

Protein sequences, listed by entry. Tags and fused reporters are not part of them. Lines headed by an entry give the natural chain unless they say otherwise; changes in a name come on top.
UniProt Q9UNA4: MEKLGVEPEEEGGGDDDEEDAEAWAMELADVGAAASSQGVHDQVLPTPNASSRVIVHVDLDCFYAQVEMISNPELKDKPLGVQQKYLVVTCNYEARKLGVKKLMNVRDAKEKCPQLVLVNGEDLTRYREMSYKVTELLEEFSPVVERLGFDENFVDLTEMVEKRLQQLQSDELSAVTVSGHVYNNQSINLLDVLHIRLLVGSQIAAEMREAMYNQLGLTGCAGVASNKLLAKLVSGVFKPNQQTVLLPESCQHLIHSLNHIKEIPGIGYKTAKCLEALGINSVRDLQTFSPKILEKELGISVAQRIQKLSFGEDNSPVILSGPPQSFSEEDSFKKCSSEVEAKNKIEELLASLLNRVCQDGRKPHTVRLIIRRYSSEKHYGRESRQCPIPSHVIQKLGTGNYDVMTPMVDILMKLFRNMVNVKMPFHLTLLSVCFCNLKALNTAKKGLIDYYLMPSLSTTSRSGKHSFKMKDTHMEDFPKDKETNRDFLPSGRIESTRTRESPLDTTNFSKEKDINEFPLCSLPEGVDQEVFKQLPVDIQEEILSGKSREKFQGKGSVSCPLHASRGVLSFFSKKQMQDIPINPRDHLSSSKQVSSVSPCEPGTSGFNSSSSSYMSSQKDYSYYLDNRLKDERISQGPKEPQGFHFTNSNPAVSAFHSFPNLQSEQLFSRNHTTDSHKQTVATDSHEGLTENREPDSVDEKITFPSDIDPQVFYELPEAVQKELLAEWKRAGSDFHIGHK

activity, negative = inhibition, inactive:
COc1ccc(C(=O)Nc2ccccc2N2CCOCC2)cc1[N+](=O)[O-] 19.7%
COc1ccccc1CNC(=O)c1ccc(CSc2nc3ccncc3n2Cc2cccc(F)c2)cc1 33.9%
O=C(NCCc1ccc(F)cc1)C(=O)NCC(c1cccs1)S(=O)(=O)c1ccccc1 (stereo not given) -20.1%
COc1ccc2c(Sc3ccccc3)c(C(=O)NCc3cc(Br)ccc3OC)[nH]c2c1 -3.43%
Cc1oc2ccc(O)c(CN3CCCC(C)C3)c2c1C(=O)Nc1ccccc1 (stereo not given) 12.4%
Cn1c(SCC(=O)NC2CCCc3ccccc32)nnc1C1CC1 (stereo not given) 34.5%
O=C1c2cccc([N+](=O)[O-])c2C(=O)N1CCO 34.6%
CC(=O)Nc1ccccc1C(F)(F)F 22.4%
CCn1nc([N+](=O)[O-])c2c(-c3nc4ccccc4o3)c(N)n(CCCOC)c2c1=O 160%
CCOc1cc(/C=N/NC(=O)c2cccs2)ccc1OC(=O)N1CCOCC1 13.3%
O=C(COc1ccc(Cl)cc1)NCc1nnc(SCC(=O)Nc2ccccc2F)o1 36.8%
NS(=O)(=O)c1ccc(CCNC(=O)CSc2ccccc2)cc1 -1.11%
CCc1cc2c(-c3ccccc3)cc(=O)oc2cc1OC(C)C(C)=O (stereo not given) 35%
CCCCN(CCCC)CCNC(=O)c1cn(C)c2ccc(S(=O)(=O)N(C)C3CCCCC3)cc2c1=O 11.9%
Cc1nn(C)cc1/C=C/C(=O)c1ccc(O)cc1 -3.23%
CCN(CC(=O)Nc1cc(Cl)ccc1C)C(=O)CCS(=O)(=O)c1ccc(C)cc1 8.08%
CCCN1C(C(=O)c2ccccc2)=C(OC(=O)c2ccc(C)cc2)c2ccccc2S1(=O)=O 31.1%

Potency, inconclusive:
CCc1ccc(N2CC(C(=O)OCc3nc4ccsc4c(=O)[nH]3)CC2=O)cc1 (stereo not given) 3.55 µM [inhibitor, full curve, poor fit]
COc1ccc(CC(=O)OCC(=O)Nc2ccc(Br)cc2)cc1 31.6 µM [inhibitor, partial curve, poor fit]
COc1ccc(C(=O)N=c2sc3c(C)ccc(OC)c3n2C)cc1OC 11.2 µM [inhibitor, partial curve, poor fit]
O=C(CN1CCCCC1)N1CCN(S(=O)(=O)c2ccccc2)C1 89.1 µM [inhibitor, single point]
COc1ccccc1NC(=O)CSc1nc2sc(C)c(C)c2c(=O)n1Cc1ccco1 14.1 µM [inhibitor, full curve, poor fit]
C=CCN(CC=C)S(=O)(=O)c1ncn[nH]1 15.8 µM [inhibitor, full curve, poor fit]
CCOC(=O)c1cc2c(c(-c3ccccc3)n1)[C@@H](CCO)N(S(=O)(=O)C(C)(C)C)C2 56.2 µM [inhibitor, single point]
Cc1cccc(N2CC(C(=O)Nc3nnc(SCc4ccccn4)s3)CC2=O)c1 (stereo not given) 25.1 µM [inhibitor, full curve]
Fc1ccc(C2CC(c3ccco3)=Nc3ccccc3S2)cc1 (stereo not given) 3.16 µM [inhibitor, full curve, poor fit]
COc1cc(/C=N/NC(=O)c2cc(-c3ccc4c(c3)OCO4)n[nH]2)ccc1O 20 µM [inhibitor, full curve]
Cc1ccc(C2NC(=O)c3c(sc4c3CCN(C)C4)N2)s1 (stereo not given) 14.1 µM [inhibitor, full curve]
COc1ccc(CNC(=O)c2ccc(-c3nc(CS(=O)c4ccc(C)cc4)c(C)o3)cc2)cc1 (stereo not given) 89.1 µM [inhibitor, single point]
CC(C)N(Cc1nc2ccccc2[nH]1)C(C)C 50.1 µM [inhibitor, partial curve, poor fit]
Cc1cc2c(cc1Cl)N(C(=O)Nc1ccnc3ccccc13)CC2 2 µM [inhibitor, full curve]
CCOc1cc(C2C(C(=O)OC)=C(C)NC3=C2C(=O)c2ccccc23)cc(Br)c1OCC (stereo not given) 89.1 µM [inhibitor, single point]
CC(C)(C)c1ccc(C(=O)Nc2ccc(C(=O)NCc3cccnc3)cc2)cc1 12.6 µM [inhibitor, partial curve, poor fit]
O=C1c2ccc3c4c(ccc(c24)C(=O)N1CCCCO)C(=O)N(CCCCO)C3=O 31.6 µM [inhibitor, partial curve]
CN1CCN(S(=O)(=O)c2cccc(C(=O)Nc3cc(C(N)=O)cc(C(N)=O)c3)c2)CC1 50.1 µM [inhibitor, partial curve, poor fit]
O=C(NC1CCCCCCC1)C1CCN(S(=O)(=O)N2CCCC2)CC1 89.1 µM [inhibitor, single point]
CC(=O)N1N=C(c2cccc(NS(=O)(=O)c3ccc(C)cc3)c2)CC1c1ccco1 (stereo not given) 89.1 µM [inhibitor, partial curve, poor fit]
O=C1/C(=C/c2ccc(C(=O)O)cc2)CCC/C1=C\c1ccc(C(=O)O)cc1 12.6 µM [inhibitor, full curve, poor fit]
O=C1CN(C(=O)/C=C/c2ccco2)c2ccccc2N1 11.2 µM [inhibitor, single point]
O=C(/C=C/c1ccco1)OCc1nnc(-c2ccc(Cl)cc2)o1 28.2 µM [inhibitor, partial curve, poor fit]
COC(=O)C1=C(C)Nc2ccc(C)cc2S1 22.4 µM [inhibitor, partial curve, poor fit]
Cc1ccc(O)c(-c2n[nH]c3c2C(c2ccccc2F)N(Cc2ccco2)C3=O)c1 (stereo not given) 79.4 µM [inhibitor, partial curve]
COc1ccccc1N1CCN(S(=O)(=O)c2ccc3c(c2)NC(=O)C(C)S3)CC1 (stereo not given) 89.1 µM [inhibitor, single point]
O=C1OC(c2cccs2)=N/C1=C\c1ccc(-c2cccc(Cl)c2)o1 39.8 µM [inhibitor, single point]
CC(=O)n1cc([C@@H]2C=C(C(=O)NCc3ccccc3)O[C@H](OCc3ccc(CO)cc3)C2)c2ccccc21 31.6 µM [inhibitor, single point]
CCc1cccc(NC(=O)CCN2C(=O)c3ccccc3Sc3ncccc32)c1 89.1 µM [inhibitor, single point]
O=C(O)c1ccc(COc2ccc(Cl)cc2)o1 2.82 µM [inhibitor, full curve]
COc1cc(O)c2c(=O)c3c(O)ccc(O)c3oc2c1 56.2 µM [inhibitor, partial curve, poor fit]
COc1cccc(N2C(=O)CC(Nc3ccc(N4CCOCC4)cc3)C2=O)c1 (stereo not given) 39.8 µM [inhibitor, single point]
O=C(Nc1ccc2[nH]c(=O)[nH]c2c1)c1ccc([N+](=O)[O-])o1 44.7 µM [inhibitor, partial curve]
O=c1c2cnn(-c3ccccc3)c2nc(-c2cccs2)n1-c1cccc(Cl)c1 79.4 µM [inhibitor, single point]
O=C(O)C=C1C2CC3CC(C2)CC1C3 100 µM [inhibitor, single point]
COc1ccc(C(=O)Oc2ccc(C(c3c(C)[nH][nH]c3=O)c3c(C)[nH][nH]c3=O)cc2OC)cc1 22.4 µM [inhibitor, single point]
CCC(C(=O)OCCN(CC)CC)c1ccccc1 (stereo not given) 89.1 µM [inhibitor, partial curve, poor fit]
ON=C1/C(=N\O)CC2(C/C1=N/O)OCCO2 20 µM [inhibitor, full curve, poor fit]
O=C(COc1ccc(Cl)cc1)NCCc1csc(-c2cccc(F)c2)n1 100 µM [inhibitor, single point]
FC(F)(F)c1cc(CCN2CCNC[C@H]2Cc2cccc3ccccc23)cc(C(F)(F)F)c1 4.47 µM [inhibitor, full curve]
COC(=O)c1ccc(NC(=S)NCCc2ccc(OC)cc2)cc1 79.4 µM [inhibitor, single point]
COc1ccccc1N1CCN(C(=O)c2noc(C)c2[N+](=O)[O-])CC1 28.2 µM [inhibitor, partial curve, poor fit]
Cc1ccc(NC(=O)Cn2c(=O)ccc3cc(S(=O)(=O)N4CCC(C)CC4)ccc32)cc1C 79.4 µM [inhibitor, single point]
CCc1ccccc1Nc1nn2c(=O)c3ccc(C(=O)NCc4ccccc4Cl)cc3nc2s1 44.7 µM [inhibitor, partial curve, poor fit]
O=C(Nc1nc2ccccc2s1)C1CCN(S(=O)(=O)c2cc([N+](=O)[O-])ccc2Cl)CC1 20 µM [inhibitor, full curve]
CCOC(=O)N1CCC2(CC1)C(C#N)=C(N)Oc1n[nH]c(CSc3ccc(C)cc3)c12 20 µM [inhibitor, partial curve, poor fit]
O=C(O)CN1C(=O)/C(=C\c2ccccc2OCc2ccc(F)cc2)SC1=S 14.1 µM [inhibitor, full curve]

No new results follow: 3 of the compounds above.
Potency, inconclusive:
C=CCN(CC=C)S(=O)(=O)c1ncn[nH]1 15.8 µM [inhibitor, full curve, poor fit]
CCOC(=O)c1cc2c(c(-c3ccccc3)n1)[C@@H](CCO)N(S(=O)(=O)C(C)(C)C)C2 56.2 µM [inhibitor, single point]
Cc1cccc(N2CC(C(=O)Nc3nnc(SCc4ccccn4)s3)CC2=O)c1 (stereo not given) 25.1 µM [inhibitor, full curve]

Following part:

Potency, active:
O=[N+]([O-])c1ccc(C=Nc2ccc(Cl)cc2Cl)s1 39.8 µM

Source: PubChem BioAssay AID588590 (National Center for Advancing Translational Sciences (NCATS), 2011)
